This is an account of results in article PMC5322571.

For at least one entry, the source does not settle the construct or the ends of the probe. No signal at the amounts used counts as a negative. The comparison behind a weaker result is the experiment's own reference, which may not be listed here.

This data set addresses CA125 (Cancer Antigen 125, mucin glycoprotein) (human) (UniProt Q8WXI7). The data set is described as follows: fluorescence anisotropy. Particulars: FA: 100 nM aptamer heat cycled in TGKM (25 mM Tris, 192 mM glycine, 5 mM KH2PO4, 1 mM MgCl2, pH 8.3), CA125 0-2000 U/mL in PBS, 0.13 mg/mL BSA, 90 min RT, read at 22 C, commercial protein, label: 5' TEX615 (Texas Red) for FA, FAM for APCE, single-stranded DNA.

“TGCCTTATTACTCTCTCCTGTTAAC [CA125_12 (CA125_12_NP, without primer regions)]”: the binding result (heat cycled with Mg2+, affinity substantially reduced (abstract: abrogated), method not explicitly stated) was “binds more weakly”.

For the sequence “ACTAGCTCCGATCTTTCTTATCTAC [CA125_1 (CA125_1_NP, without primer regions)]”, under “heat cycled without Mg2+ (PBS)”, the binding result is given as “no binding”.
